# Test results as given in US20080280814A1, “Pharmaceutical Compositions Containing Insulin and Insulinotropic Peptide” (Novo Nordisk A/S, priority 2004, published 2008).
# Sequences of proteins named here, by UniProt entry; tags and fusion partners are left off. Residues count along the entry.
# UniProt P01308, 25-54 P52D: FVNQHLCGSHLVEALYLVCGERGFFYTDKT
# UniProt P01308, 90-110: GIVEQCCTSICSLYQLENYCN
# At least one compound was matched to its structure with a doubt left.
# Target: T1, His^B10 anion site of the R6 hexameric aspart (Homo sapiens, UniProt P01308, P52D)
# T1 construct: The A-chain is a 21 amino acid peptide and the B-chain is a 30 amino acid peptide
# Assay: 600 MHz proton NMR of aspart/liraglutide mixtures (R6 hexamer signal of Cys A6 alpha proton at 5.6 ppm)
# Type: binding
# Details: 0.6 mM aspart, liraglutide increasing 0 to 2.4 mM, pH 7.5, 0.3 mM Zn(Ac)2, 30 mM d-phenol, no ligand; FIG. 13
# Experimental: Insulin Aspart (B28 Asp human insulin) and liraglutide mixtures were prepared with constant aspart concentration (0.6 mM) and increasing concentration of liraglutide (going from 0 to 2.4 mM). Mixtures are formulated at pH 7.5, 1.6% w/v d-glycerol, 0.3 mM Zn(Ac)2, 30 mM d-phenol (deuterated phenol in order to avoid any proton NMR signal). […] This region of the proton NMR signal only included signals from aspart, no signals from liraglutide were present.
# Ligands for the His^B10 anion site of the R6 hexameric aspart entity will stabilize this R6 conformation. Two such ligands were tested under the same conditions as was used in the experiment depicted in FIG. 13 with the addition of ligands at 3 mM concentration.
smiles,measurement,value
"CCCCCCCCCCCCCCCC(=O)N[C@@H](CCC(=O)NCCCC[C@H](NC(=O)[C@H](C)NC(=O)[C@H](C)NC(=O)[C@H](CCC(N)=O)NC(=O)CNC(=O)[C@H](CCC(=O)O)NC(=O)[C@H](CC(C)C)NC(=O)[C@H](Cc1ccc(O)cc1)NC(=O)[C@H](CO)NC(=O)[C@H](CO)NC(=O)[C@@H](NC(=O)[C@H](CC(=O)O)NC(=O)[C@H](CO)NC(=O)[C@@H](NC(=O)[C@H](Cc1ccccc1)NC(=O)[C@@H](NC(=O)CNC(=O)[C@H](CCC(=O)O)NC(=O)[C@H](C)NC(=O)[C@@H](N)Cc1cnc[nH]1)[C@@H](C)O)[C@@H](C)O)C(C)C)C(=O)N[C@@H](CCC(=O)O)C(=O)N[C@@H](Cc1ccccc1)C(=O)N[C@H](C(=O)N[C@@H](C)C(=O)N[C@@H](Cc1c[nH]c2ccccc12)C(=O)N[C@@H](CC(C)C)C(=O)N[C@H](C(=O)N[C@@H](CCCNC(=N)N)C(=O)NCC(=O)N[C@@H](CCCNC(=N)N)C(=O)NCC(=O)O)C(C)C)[C@@H](C)CC)C(=O)O [liraglutide, Arg^34 Lys^26(N^ε-(γ-Glu(N^α-hexadecanoyl)))-GLP-1(7-37), reference compound]","concentration of aspart R6 hexamers (signal at 5.6 ppm, alpha proton of Cys A6)",concentration of aspart R6 hexamers was decreased
